Reference: PubChem BioAssay AID504582 (Broad Institute, 2011)
Among all 340,000 compounds or so, about 2,300 (0.68%) were called active. Inconclusive means that the source gave no clear call. Such entries were picked first, then a sample of the others. Cut-off read from the data, not from the text of the source: active = growth rescue above about 28% (passing the limit was not always enough); inconclusive = no clear call, values can overlap the other calls.

Assay: rescue of yeast from PfHsp40 toxicity, primary screen, S. cerevisiae, ATP luminescence (AID 504582);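 note: yeast W303a lacking pdr1 and pdr3 grown in galactose medium; growth measured after three days at 30 °C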
Settings: S. cerevisiae expressing PfHsp40, growth rescue, at 12.5 µM, stronger effect = higher value
For COc1cc(Cl)ccc1OCc1cc(C(=O)N2C[C@H]3CC[C@H]2C3)no1, the growth rescue was inactive: 0.803%.
For CN(C)C(=S)Nc1nc2ccccc2s1, the growth rescue was inconclusive: 26.1%.
With C=CC[C@@H](Cc1ccc(F)cc1)C(=O)OC[C@H]1CCCN1C(=O)[C@@H](CC=C)CC(=O)N(CCO)Cc1ccccc1 the growth rescue was inconclusive: 28.9%.
For COCCN(C(=O)COC(=O)CSc1ccc2ccccc2c1)c1c(N)n(Cc2ccccc2)c(=O)[nH]c1=O, the growth rescue was inconclusive: 60.4%.
In the case of Cc1[nH]nc2c1C1(CCOCC1)C(C#N)=C(N)O2, the growth rescue is reported as inactive: 1.35%.
In the case of Cc1ccc(S(=O)(=O)CCC(=O)OCC(=O)NC(N)=O)cc1, the growth rescue is reported as inconclusive: 58.2%.
With CC(=O)/C(=N/Nc1cccc(Cl)c1)N1CCOCC1 the growth rescue was inactive: 0.0395%.
With Cc1nc2ccccc2c(=O)n1/N=C/c1cc(Br)cc(Br)c1O the growth rescue was inconclusive: 64.8%.
With CCN(CC)S(=O)(=O)c1ccc2c(c1)CC(C(=O)N1CCCC1)N2C(C)=O (centres undefined) the growth rescue was inconclusive: 59.5%.
In the case of COc1cc(-c2nc3ccccc3s2)ccc1O, the growth rescue is reported as inconclusive: 426%.
For COc1cc2c(cc1OC)C(C)N(C(=O)c1cc3ccccc3o1)CC2 (centres undefined), the growth rescue was inconclusive: 28.3%.
For CC(=O)N1CCc2cc(C(=O)CN3CCN(c4ccccn4)CC3)ccc21, the growth rescue was inactive: 1.71%.
With S=C(NCc1ccccc1)NNc1nc2ccccc2[nH]1 the growth rescue was inconclusive: 75.5%.
For O=C(O)c1ccccc1-c1nc2cc(Cl)ccc2c(=O)n1O, the growth rescue was inactive: -0.961%.
For N#Cc1ccc(C(=O)Nc2nnc(-c3cccs3)o2)cc1, the growth rescue was inactive: 0.24%.
For CC(C(=O)N1CCCC1)N1CCN(S(=O)(=O)c2ccc(C(C)(C)C)cc2)CC1 (centres undefined), the growth rescue was inactive: -0.262%.
In the case of Nc1ccc2oc(=O)c3ccccc3c2c1, the growth rescue is reported as inconclusive: 56.5%.
In the case of Cc1n[nH]c(C)c1S(=O)(=O)N1CCCC(C(=O)NCc2ccccc2Cl)C1 (centres undefined), the growth rescue is reported as inactive: -0.895%.
In the case of Cc1nn2c(NCc3ccccn3)cc(C(C)(C)C)nc2c1-c1ccccc1, the growth rescue is reported as inconclusive: 33.7%.
In the case of COc1ccccc1-c1c(C)nn2c(N3CCC4(CC3)OCCO4)cc(C)nc12, the growth rescue is reported as inconclusive: 108%.
For COc1cccc(CNCCc2c[nH]c3ccccc23)c1OCc1ccccc1, the growth rescue was inactive: -0.958%.
With COc1ccc(-c2noc(CSc3nnc(Cc4ccccc4)n3-c3ccc(Cl)cc3)n2)cc1 the growth rescue was inactive: 5.88%.
With COc1ccc(C(CNC(=O)c2ccc(S(=O)(=O)Nc3ccccc3F)cc2)N(C)C)cc1 (centres undefined) the growth rescue was active: 33.3%.
For O=C(O)C/C(=C\c1cccc(NC(=O)c2ccccc2Cl)c1)c1nc2ccccc2s1, the growth rescue was active: 28%.
With O=C(NCc1cccnc1)c1cccc2c1C(=O)N(Cc1cccnc1)C2 the growth rescue was inconclusive: 27.3%.
With Oc1c(C(c2ccc(Cl)cc2)N2CCCC2)cc(Cl)c2cccnc12 (centres undefined) the growth rescue was active: 52.8%.
For Cc1ccc(COc2ccc(Br)cc2/C=N/O)cc1, the growth rescue was active: 450%.
For Cn1c(SCc2c(Cl)cccc2Cl)nnc1-c1ccc2nonc2c1, the growth rescue was inactive: -0.033%.
With O=C(O)CCC(=O)c1ccc2sc3ccccc3c2c1 the growth rescue was active: 122%.
With CN(N)c1nc(-c2ccccc2)cc(-c2ccccc2)n1 the growth rescue was inconclusive: 25.1%.
With Cc1ccc(C(=O)Nc2ccccc2N2CCN(C(=O)C(C)C)CC2)cc1C the growth rescue was inconclusive: 26.4%.
With CCC1(CCCC(=O)c2ccc(F)cc2)C(=O)NC(=S)NC1=O the growth rescue was inconclusive: 32.7%.
With CN(C)c1cc(NC(=O)CNC(C)(C)C)c2ccccc2n1 the growth rescue was inactive: 1.35%.
With COC(=O)c1ccc(CS(=O)(=O)c2ccccc2C)o1 the growth rescue was inconclusive: 26.3%.
In the case of CC(C)C(=O)NCCc1nc(-c2ccccc2)no1, the growth rescue is reported as inconclusive: 41.7%.
For Cc1ccc(-c2[nH]c3cc(C(N)=O)ccc3c(=O)c2O)cc1, the growth rescue was active: 44.2%.
For O=C1c2ccccc2NC(c2ccc(-c3cccc([N+](=O)[O-])c3)o2)N1O (centres undefined), the growth rescue was active: 233%.
With CC(/C=C1\SC(=S)N(NS(=O)(=O)c2ccc(C)cc2)C1=O)=C\c1ccccc1 the growth rescue was inconclusive: 63.5%.
With CCSc1nc2sc3c(c2c(=O)n1-c1ccccc1C)CCN(C)C3 the growth rescue was inconclusive: 94.6%.
For S=C(Nc1ccc(Oc2ccccc2)cc1)NC1CCCCCC1, the growth rescue was inconclusive: 72.9%.
In the case of S=C(NCCCc1ccccc1)Nc1ccc(Cl)cc1, the growth rescue is reported as inconclusive: 108%.
With COc1ccc(OC)c(C(=O)N/N=C/c2ccccn2)c1 the growth rescue was inconclusive: 28.1%.
For COc1cccc(CC2(CO)CCCN(Cc3ccc4c(c3)OCCO4)C2)c1 (centres undefined), the growth rescue was inactive: -1.05%.
In the case of COc1ccc(-c2cn3c(C)c(C(=O)Nc4ccncc4)sc3n2)cc1, the growth rescue is reported as inactive: 0.267%.
With Cc1c(C(=O)N(C)CCc2cnn(C)c2)oc2c(F)cccc12 the growth rescue was inactive: 6.8%.
In the case of CCOc1ccccc1NC(=O)CCS(=O)(=O)c1ccc(Br)cc1, the growth rescue is reported as inconclusive: 29.4%.
For Cc1cc(N2CCN(c3cccc(C)c3C)CC2)nc(-c2ccccc2)n1, the growth rescue was inconclusive: 35.2%.
For CC(C)(C)c1ccc2c(c1)N(CC(=O)N1CCOCC1)C(=O)CO2, the growth rescue was inconclusive: 29.6%.
With Nc1nc(-c2ccc(Br)s2)c(Br)s1 the growth rescue was inconclusive: 29.3%.
For CCOc1cccc(OCC)c2c(C)[n+](CC3CCCO3)c(C)c1-2 (centres undefined), the growth rescue was inconclusive: 48.5%.
In the case of Cc1occc1-c1nnc(SCC(=O)N2CCCC(C)C2)o1 (centres undefined), the growth rescue is reported as inconclusive: 39.4%.
With CC(C)(c1cc(Br)c(O)c(Br)c1)c1cc(Br)c(O)c(Br)c1 the growth rescue was active: 331%.
In the case of CCc1ccc(NSc2ccccc2[N+](=O)[O-])cc1, the growth rescue is reported as active: 45.6%.
In the case of Cc1ccc(NC(=O)c2ccccc2-c2ccc(C(F)(F)F)cc2)cc1S(=O)(=O)N1CCOCC1, the growth rescue is reported as inconclusive: 28.1%.
For Cn1c(SCC(N)=O)nnc1-c1ccc(S(=O)(=O)N2CCCC2)cc1, the growth rescue was inactive: -0.184%.
With CC1CCCCC1Nc1nc2ccc(Cl)cc2n2cnnc12 (centres undefined) the growth rescue was active: 26.7%.
For Cn1c(=O)c([N+](=O)[O-])c(N2CCSCC2)c2ccccc21, the growth rescue was inactive: 0.581%.
With Oc1c(Cl)cc(Cl)cc1/C=N/c1nccs1 the growth rescue was inconclusive: 35.9%.
With CCOc1ccc2nc(SCc3ccc(OC)cc3)sc2c1 the growth rescue was inactive: -0.484%.
